This passage reports cell number change and AC50 results from PubChem BioAssay AID2685 (National Center for Advancing Translational Sciences (NCATS), 2010).

Some of the results follow. Shown are side measurements of this screen, not its main read-out; they come without a call. Compounds called inactive in the main read-out are mostly missing here. Potencies come from curve fits of mixed quality, noted in brackets.

A short description of this assay: qHTS Assay for Lipid Storage Modulators in Drosophila S3 Cells.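 As to cell number change: cells counted by Cell Tracker Red CMTPX staining in the red channel.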 As to conditions: BODIPY lipid droplet fluorescence, 18-24 h; for cell number change: measured here: cell count max response, cells fed with added oleic acid. The gist of the method: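 Drosophila S3 cells got compounds at several concentrations plus oleic acid (400 uM solution). Laser-scanning cytometry with 488 nm excitation read lipid droplets at 500-530 nm and cells at 575-640 nm. Percent activity was relative to 20 uM Triacsin C.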

[1] abbreviates: measured here: lipid fluorescence (Fed channel) AC50, cells fed with added oleic acid.
Setting [2] is: measured here: cell number channel AC50, cells fed with added oleic acid.

On to `Cc1cccc(-c2nc(CSc3nc4c(c(=O)[nH]3)CCC4)c(C)o2)c1`, for which the cell number change turned out to be 19.4%. Further, the AC50 under setting [1] is 9.2 µM [rising, partial curve].

Regarding `CCOc1ccc(N(C(C)C(=O)NN=C2CCCCCCC2)S(C)(=O)=O)cc1` (stereo not drawn), the cell number change is 24.5%. Also, the concentration at half-maximal activity (AC50) under setting [1] is 29.1 µM [rising, single point].

For the compound `O=C1C=C(NCC2CCCO2)C2(CCCCC2)O1` (stereo not drawn), the cell number change turned out to be 110%. Further, under setting [2], the half-maximal activity concentration (AC50) is 4.11 µM [rising, full curve, poor fit]. Take `C/C(=N\NC(=O)c1ccn(C)n1)c1ccc(NC(=O)C2CCC2)cc1`: the concentration at half-maximal activity (AC50) under setting [1] is 10.3 µM [falling, partial curve]. In the case of `COC(=O)CS(=O)(=O)c1nnc([C@H](Cc2ccccc2)NC(=O)OC(C)(C)C)o1`, the cell number change is -146%. Also, the AC50 under setting [2] is 25.9 µM [falling, partial curve]. In addition, the AC50 under setting [1] was 25.9 µM [falling, partial curve]. In the case of `COc1ccc(C(=O)NCCc2nnc3ccc(SCC(=O)N4CCCC4)nn23)cc1`, the cell number change was -9.72%. In addition, the half-maximal activity concentration (AC50) under setting [1] was 0.731 µM [rising, single point]. As to `COCc1cc(=O)[nH]c2cc(NC(=O)C(F)(F)F)c(C)cc12`, the cell number change is -8.92%. Consider `COc1ccc(-n2ncc3c(=O)n(CC(=O)Nc4ccc5c(c4)OCCO5)cnc32)cc1`, for which the cell number change came to 34.8%. For the same compound, the half-maximal activity concentration (AC50) under setting [2] is 16.4 µM [rising, single point]. Besides, the half-maximal activity concentration (AC50) under setting [1] was 29.1 µM [falling, single point].

On to `CC(C)C(NC(=O)C1CCC(C(C)(C)C)CC1)C(=O)NCCCN1CCCCC1` (stereo not drawn), for which the cell number change was -39.2%. The AC50 under setting [1] is 0.184 µM [falling, full curve, poor fit].

For the compound `C=C[C@@H]1c2c(F)cccc2N(S(=O)(=O)c2ccc(C)cc2)[C@H](c2ccc(OC(C)=O)cc2)C1(C#N)C#N`, the cell number change is -4.42%. Under setting [2], the concentration at half-maximal activity (AC50) is 6.51 µM [falling, single point].

In the case of `Cc1cc(NC(=O)Nc2ccc(OCc3ccccc3)cc2)n(C)n1`, the cell number change stood at 9.41%. Further, under setting [1], the half-maximal activity concentration (AC50) was 0.164 µM [rising, full curve, poor fit]. `Cc1cc(Cl)c(S(=O)(=O)NCC2CCCO2)cc1OCC(N)=O` (stereo not drawn): the cell number change turned out to be 17.9%. The concentration at half-maximal activity (AC50) under setting [1] is 18.4 µM [rising, single point].

As to `N#CC1=C(N)N=C(SCc2cccc3ccccc23)C(C(N)=O)C12CCCCC2` (stereo not drawn), the cell number change is -65.2%. The concentration at half-maximal activity (AC50) under setting [2] was 29.1 µM [falling, single point]. Moreover, the half-maximal activity concentration (AC50) under setting [1] is 29.1 µM [falling, single point]. As for `COc1cccc(C(=O)Nc2ccc(S(=O)(=O)Nc3onc(C)c3C)cc2)c1`, the cell number change is -93.1%. Besides, under setting [2], the concentration at half-maximal activity (AC50) is 0.58 µM [falling, full curve]. In the case of `O=C(O)c1ccc(NCc2cccnc2)cc1`, the cell number change was -10.2%. Turning to `COc1ccc(C(=O)N/C(=C\c2ccccc2)C(=O)NCCCn2ccnc2)cc1`, the cell number change is -10.5%. The same measure, in the same setting: the same measure for `COCCn1c(COc2cccc(OC)c2)nnc1SCC(=O)NC1CCCCC1`: 0.427%. In the case of `CCN(CC)CCNC(=O)c1ccc(NC(=O)CC(NC(=O)c2ccccc2Cl)c2ccccc2)cc1` (stereo not drawn), the cell number change was -5.41%. The AC50 under setting [1] was 6.51 µM [rising, single point]. Regarding `Nc1n[nH]c(CCCO)n1`, the cell number change is -16.7%. Under setting [2], the AC50 was 6.51 µM [rising, single point]. Further, the AC50 under setting [1] was 0.00517 µM [falling, full curve, poor fit]. On to `CN(Cc1cccnc1)C(=O)c1cc(COc2ccc3ncccc3c2)on1`, for which the cell number change is -44.8%. Besides, the half-maximal activity concentration (AC50) under setting [2] was 2.31 µM [falling, full curve]. For the same compound, the AC50 under setting [1] was 11.6 µM [falling, partial curve]. For the compound `CC(=O)Nc1ccc(Nc2cc(C)nc3c(-c4ccc(Cl)cc4)cnn23)cc1`, the cell number change is -20.6%. Consider `Cc1ccc(C2C(N)C(=O)N2c2ccc(C)cc2)cc1` (stereo not drawn), for which the cell number change was found to be 13.5%. The AC50 under setting [1] is 4.61 µM [falling, full curve, poor fit]. Regarding `COC(=O)Nc1ccc(S(=O)(=O)N2CCCCC2C(=O)NCc2ccco2)cc1` (stereo not drawn), the cell number change is 54%. Besides, the concentration at half-maximal activity (AC50) under setting [2] was 8.2 µM [rising, single point]. Turning to `Cc1cc2oc(C(=O)NCc3ccc4c(c3)OCO4)c(C)c2cc1C`, under setting [2], the AC50 was 2.06 µM [rising, single point]. Regarding `COc1cc2c(cc1OC)C(CC(=O)O)N(C(=O)CC1CCCC1)CC2` (stereo not drawn), the cell number change was -7.89%. In the case of `Cc1cc(C)n(C(C)CC(=O)Nc2ccc(-c3ccno3)cc2)n1` (stereo not drawn), the cell number change is -15.2%. Under setting [1], the AC50 is 25.9 µM [falling, single point]. In the case of `COc1ccc(/C=C(/NC(=O)c2ccco2)C(=O)Nc2ccc(C(C)=O)cc2)cc1`, the cell number change was found to be 62.5%. Under setting [2], the half-maximal activity concentration (AC50) was 25.9 µM [rising, partial curve, poor fit]. With `Cc1c(C(N)=O)c(N)c(C(=O)c2ccccc2)n1-c1ccccc1`, the cell number change worked out at 2.06%. Under setting [1], the half-maximal activity concentration (AC50) is 0.00461 µM [rising, full curve, poor fit]. Take `O=C(CN1C(=O)c2ccccc2S1(=O)=O)NCCSc1ccccc1`: the cell number change is -45.4%. The AC50 under setting [2] is 2.06 µM [falling, full curve, poor fit]. Further, under setting [1], the AC50 was 0.146 µM [falling, partial curve]. For `CCOC(=O)C1(Cc2ccc(OC)cc2)CCN(C(=O)CN2CCOC2=O)CC1`, the cell number change was 8.87%. Under setting [1], the AC50 was 6.51 µM [falling, partial curve]. In the case of `O=[N+]([O-])c1ccc(N/N=C/c2c[nH]c3ccccc23)c(S(=O)(=O)Nc2ccc(Cl)cc2)c1`, the cell number change was -2.94%. The AC50 under setting [1] is 0.092 µM [falling, full curve, poor fit]. As to `COc1ccccc1Cn1c(=S)[nH]c2cc(C(=O)NCCN3CCOCC3)ccc2c1=O`, the cell number change was 1.94%. On to `CCC(c1nnnn1Cc1ccccc1)N(Cc1ccco1)Cc1cc2cc(OC)ccc2[nH]c1=O` (stereo not drawn), for which the cell number change was -12.6%. In addition, the AC50 under setting [1] is 0.0058 µM [rising, full curve, poor fit]. As for `CCc1nn(C)c(-c2n[nH]c(=S)n2N)c1Cl`, the cell number change stood at 20.1%. For the same compound, the AC50 under setting [1] was 1.84 µM [rising, partial curve]. As to `Cc1nc2sc(C(c3cccc(F)c3)N3CCOCC3)c(O)n2n1` (stereo not drawn), under setting [1], the half-maximal activity concentration (AC50) is 0.82 µM [falling, single point].

Regarding `CCn1c(C)nc2c(=O)oc3ccccc3c21`, the cell number change was 9.7%. Besides, the concentration at half-maximal activity (AC50) under setting [1] is 6.51 µM [rising, single point].

On to `O=C(CCNC(=O)c1ccc([N+](=O)[O-])cc1)Nc1nccs1`, for which the cell number change was -1.91%. For the same compound, the half-maximal activity concentration (AC50) under setting [2] is 2.59 µM [falling, partial curve]. Also, the concentration at half-maximal activity (AC50) under setting [1] was 6.51 µM [falling, partial curve, poor fit]. As to `NC(=O)N=Nc1c(O)n(Cc2ccccc2)c2ccc(Br)cc12`, the cell number change was -40.2%. Further, the AC50 under setting [2] is 13 µM [falling, partial curve, poor fit]. Consider `O=C(O)c1cccc2c1C(=O)N(C1CCCCC1)C2`, for which the cell number change was 14%. On the same count and under the same terms, in the case of `O=C(CCN1CCN(c2ccccc2)CC1)NNC(=S)Nc1ccccc1Cl` it was 17.5%. On to `C/C(N)=C(/C#N)C(=O)CSc1nc2ccccc2[nH]1`, for which the AC50 under setting [2] is 0.0231 µM [rising, full curve, poor fit]. `N#C/C(=C\c1coc2ccc(O)cc2c1=O)C(=O)Nc1nc2ccccc2s1`: the cell number change is -46.5%. Further, the AC50 under setting [2] is 16.4 µM [falling, single point]. The AC50 under setting [1] was 18.4 µM [falling, single point].

As to `CS(=O)(=O)Nc1ccc(C2=NN(C(=O)c3ccco3)C(c3ccccc3)C2)cc1` (stereo not drawn), the AC50 under setting [1] was 0.92 µM [falling, full curve, poor fit]. On to `Cc1cc(C)c(S(=O)(=O)c2ccc(C(C)(C)C)cc2)c(Cl)n1`, for which the cell number change was determined as 35.9%. Besides, the concentration at half-maximal activity (AC50) under setting [2] was 20.6 µM [rising, single point]. Moreover, the concentration at half-maximal activity (AC50) under setting [1] is 6.51 µM [falling, single point]. Consider `Cc1ccc(NC(=O)C2CCCN2C(=O)Oc2ccccc2)cc1` (stereo not drawn), for which the cell number change worked out at 4.14%. The AC50 under setting [1] is 7.31 µM [rising, full curve, poor fit].

Regarding `CCOc1ccc(S(=O)(=O)N2CCC(C(=O)Nc3cc(S(C)(=O)=O)ccc3Cl)CC2)cc1`, the cell number change was 0.448%. Further, under setting [2], the AC50 is 0.0058 µM [rising, full curve, poor fit]. In addition, the AC50 under setting [1] was 0.146 µM [rising, full curve, poor fit].

As for `O=C(O)C1C2CCC(O2)C1C(=O)Nc1ccc(F)cc1` (stereo not drawn), the cell number change worked out at 52.9%. Moreover, the half-maximal activity concentration (AC50) under setting [2] was 23.1 µM [rising, partial curve, poor fit].

For the compound `CCCc1nc2ccccc2c(=O)n1/N=C/c1ccc(O)cc1`, the cell number change is -30.4%. In addition, the AC50 under setting [2] was 20.6 µM [falling, single point]. Besides, under setting [1], the half-maximal activity concentration (AC50) is 0.00517 µM [rising, full curve, poor fit]. For the compound `CCn1cc(C(=O)NNC(=O)c2ccc(Cl)cc2)c(=O)c2ccc(C)nc21`, the cell number change came to 1.23%. For the same compound, the half-maximal activity concentration (AC50) under setting [1] was 29.1 µM [rising, single point]. As for `O=C(CN1C(=O)c2ccccc2S1(=O)=O)Nc1ccc(S(=O)(=O)N2CCCC2)cc1`, the cell number change was 0.704%. Moreover, under setting [1], the AC50 was 29.1 µM [falling, single point]. Consider `CC(C)(C)c1ccccc1OCC(=O)NCCC(=O)O`, for which the cell number change was 16.5%. Moreover, the AC50 under setting [1] is 29.1 µM [rising, single point]. With `NC1=NC(=O)/C(=C/c2cccc(-c3ccc(S(N)(=O)=O)cc3)c2)S1`, the cell number change was found to be 43.4%. Besides, under setting [2], the AC50 is 14.6 µM [rising, partial curve, poor fit]. Regarding `CCOc1cccc(C(=O)NNC(=O)CCC(=O)O)c1`, the cell number change is -4.93%. Besides, the concentration at half-maximal activity (AC50) under setting [1] was 0.651 µM [falling, full curve].

Take `Cn1c(=O)c(C(=O)Nc2ncccc2O)c(O)c2ccccc21`: the cell number change is -59.4%. Moreover, the concentration at half-maximal activity (AC50) under setting [2] was 16.4 µM [falling, single point]. Also, the half-maximal activity concentration (AC50) under setting [1] was 20.6 µM [falling, single point]. In the case of `COc1ccccc1NS(=O)(=O)c1cccc(C(=O)N/N=C(\C)c2ccc3c(c2)OCCO3)c1`, the cell number change came to 7.41%. As for `O=C(CSc1ccc(Cl)cc1)Nc1nnc(-c2ccco2)o1`, the cell number change worked out at 8.06%. Moreover, the half-maximal activity concentration (AC50) under setting [1] is 10.3 µM [falling, partial curve].

As for `N#Cc1ccc(Oc2cccnc2)cc1C#N`, under setting [1], the concentration at half-maximal activity (AC50) is 0.731 µM [rising, single point]. For `CC(=O)N1CCN(C(=O)CSc2cc(C)c(Br)cc2C)CC1`, the cell number change came out at 20.5%. Regarding `O=C(COc1ccc(Cl)cc1Br)NC(=O)NC1CCCC1`, the cell number change was -60.8%. Moreover, under setting [2], the half-maximal activity concentration (AC50) was 18.4 µM [falling, partial curve].

Broadly, the AC50 is the concentration at which the activity in the assay is half-maximal.
